# Hit rate of the full screen: of about 580,000 compounds, about 6,100 (1.1%) were called active. Inconclusive means that the source gave no clear call. Such entries were picked first, then a sample of the others. The call rests on the fitted dose curve; in most records, active means well fitted inhibition curve with a large enough effect; inconclusive means small, poorly fitted or top-dose-only effect, or another doubt; inactive means no such curve, though single readings can be large or run the other way. Potencies beside an inconclusive call are fits to weak or partial responses and may not hold up.
# Amino acid sequences for entries named in this document (tags omitted). A change or cut given only in a name is not applied to a line headed by its entry.
# UniProt P18054: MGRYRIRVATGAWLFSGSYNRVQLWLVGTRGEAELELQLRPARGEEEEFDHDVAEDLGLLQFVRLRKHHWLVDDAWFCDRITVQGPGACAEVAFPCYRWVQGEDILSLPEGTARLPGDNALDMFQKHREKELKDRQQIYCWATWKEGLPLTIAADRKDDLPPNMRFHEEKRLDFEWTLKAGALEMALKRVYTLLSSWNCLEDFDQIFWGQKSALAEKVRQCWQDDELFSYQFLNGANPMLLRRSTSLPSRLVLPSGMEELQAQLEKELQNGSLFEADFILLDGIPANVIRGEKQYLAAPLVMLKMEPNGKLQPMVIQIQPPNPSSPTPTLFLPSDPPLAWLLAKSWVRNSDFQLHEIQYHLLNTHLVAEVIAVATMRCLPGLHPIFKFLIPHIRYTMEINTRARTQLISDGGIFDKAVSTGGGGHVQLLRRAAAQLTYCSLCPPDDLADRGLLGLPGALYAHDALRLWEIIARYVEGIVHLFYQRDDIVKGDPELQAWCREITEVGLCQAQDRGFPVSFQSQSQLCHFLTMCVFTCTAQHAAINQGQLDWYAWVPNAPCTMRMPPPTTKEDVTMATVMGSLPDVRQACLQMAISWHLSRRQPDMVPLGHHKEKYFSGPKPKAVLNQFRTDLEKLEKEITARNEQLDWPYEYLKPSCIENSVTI
# Biological target: Polyunsaturated fatty acid lipoxygenase ALOX12 (Homo sapiens) (UniProt P18054)
# Assay: Primary qHTS assay for inhibitors of human arachidonate 12S-lipoxygenase (ALOX12): Round 2
# Settings: purified 12hLO, xylenol orange hydroperoxide absorbance; activity change, negative = inhibition: at 108 µM (top of the series) unless noted
# How it was run: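 Purified human 12hLO at 150 nM in 25 mM Hepes, 0.01% Triton X-100, pH 7.0, preincubated 15 min at room temperature with compound. Reaction started with 40 uM arachidonic acid, 30 min at room temperature. Hydroperoxide measured by Fe-xylenol orange, 573/405 nm absorbance ratio.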
# On the % scale 0 is the no-effect control and ±100 the full control effect; potency means the concentration at half of the fitted maximal effect.
Compound,"activity change, negative = inhibition",Potency
CC1CCCN(C(=O)CSc2c3c(nc4cc(Cl)ccc24)CCCC3)C1 (stereo not given),inactive: -5.05%,
O=C(Nc1cc(-c2nc3cc(Cl)ccc3o2)ccc1Cl)c1ccco1,,"inconclusive: 100 µM [inhibitor, partial curve, poor fit]"
O=C(CCc1ncc(-c2ccc(F)cc2)o1)N1CCN(S(=O)(=O)c2ccc(F)cc2F)CC1,inactive: 16.4%,
COc1ccc(C2=NN(C(C#N)c3ccc(OC)c(OC)c3)C(c3ccccc3)C2)cc1 (stereo not given),,"inconclusive: 5.62 µM [inhibitor, full curve, poor fit]"
CC(Sc1nnc(-c2cccs2)n1-c1ccccc1)C(=O)NCc1ccc2c(c1)OCO2 (stereo not given),,"inconclusive: 141 µM [inhibitor, partial curve, poor fit]"
Cc1cc(NC(=O)[C@@H]2CCCN2S(=O)(=O)c2ccc(OC(C)C)cc2)no1,,"inconclusive: 126 µM [inhibitor, partial curve, poor fit]"
Cc1c(CCO)c(=O)oc2n[nH]c(-c3ccccc3)c12,inactive: -4.72%,
CCN(CC)C(=O)Oc1ccc(Br)cc1C(=O)Nc1ccc(F)cc1F,,"inconclusive: 112 µM [inhibitor, single point]"
COc1ccc(CCN2CC(C(=O)NCc3cccc(F)c3)CCC2=O)cc1 (stereo not given),inactive: -8.43%,
CCCCCC(=O)Nc1ccc(-c2nc3cc(OC)ccc3o2)cc1,,"inconclusive: 31.6 µM [inhibitor, partial curve, poor fit]"
CCOC(=O)C1CCCN(Cc2ccc3c(c2)OCO3)C1 (stereo not given),,"inconclusive: 1.58 µM [inhibitor, full curve, poor fit]"
CC(C)OC(=O)[C@H](C)N[P@](=O)(OC[C@H]1O[C@@H](n2ccc(=O)[nH]c2=O)[C@](C)(F)[C@H]1O)Oc1ccccc1,,"inconclusive: 48.5 µM [inhibitor, single point]"
O=c1cc(CNc2cc(C(F)(F)F)cc(C(F)(F)F)c2)nc2sccn12,,"inconclusive: 56.2 µM [inhibitor, partial curve, poor fit]"
COc1cc(C)c2sc3ccccc3c(=O)c2c1NCCN(C)C,,"inconclusive: 50.1 µM [inhibitor, partial curve, poor fit]"
N#Cc1nc(COc2ccc(F)cc2)oc1N1CCCCC1,,"inconclusive: 39.8 µM [inhibitor, partial curve, poor fit]"
O=C(CCN1C(=O)C2C3C=CC(C3)C2C1=O)Nc1ccccn1 (stereo not given),inactive: -19.8%,
CCN(CC)CCOc1ccc2c(c1)C(=NO)c1cc(OCCN(CC)CC)ccc1-2,,"inconclusive: 39.8 µM [inhibitor, partial curve, poor fit]"
NS(=O)(=O)c1cc(C(=O)O)c(NCc2ccco2)cc1Cl,,"inconclusive: 17.2 µM [inhibitor, partial curve, poor fit]"
Cc1cc(N2CCOCC2)ccc1/C=C\[N+](=O)[O-],,"inconclusive: 39.8 µM [inhibitor, partial curve, poor fit]"
Cn1ncc2c(SCc3nc4ccccc4n3C(F)F)ncnc21,inactive: -8.65%,

# Two entries drawn at random from the list so far, as already listed:
Compound,"activity change, negative = inhibition",Potency
Cc1cc(N2CCOCC2)ccc1/C=C\[N+](=O)[O-],,"inconclusive: 39.8 µM [inhibitor, partial curve, poor fit]"
COc1ccc(CCN2CC(C(=O)NCc3cccc(F)c3)CCC2=O)cc1 (stereo not given),inactive: -8.43%,

# Further records follow:

Compound,"activity change, negative = inhibition",Potency
Oc1ccc(Cl)cc1Cc1cc(Cl)ccc1O,,"inconclusive: 31.6 µM [inhibitor, partial curve, poor fit]"
CC1(C)C(=O)NCCN1C(=O)CC1C(=O)NCCN1CC(c1ccccc1)c1ccccc1 (stereo not given),,"inconclusive: 35.5 µM [inhibitor, partial curve, poor fit]"
CCCn1nc(C(=O)N(C)Cc2ccc(OCC)cc2)c2ccccc2c1=O,,"inconclusive: 22.4 µM [inhibitor, partial curve, poor fit]"
CSc1nc(C(C)C)nc(C)c1C(=O)Nc1ccc(Cl)cc1F,,"inconclusive: 1.12 µM [inhibitor, full curve, poor fit]"
CS(=O)(=O)N1CCc2cc(C(=O)CSc3nnc(C4CC4)n3C3CC3)ccc21,,"inconclusive: 100 µM [inhibitor, partial curve, poor fit]"
O=C(Cn1nc(C(=O)O)c2ccccc2c1=O)Nc1ccccc1,,"inconclusive: 100 µM [inhibitor, single point]"
Cc1ccc(C2Cn3nnc(-c4nc(C5CCCCC5)no4)c3CO2)c(C)c1 (stereo not given),inactive: 56.6%,
O=S(=O)(NCc1ccccn1)c1cc(OCC(F)(F)F)ccc1OCC(F)(F)F,,"inconclusive: 39.8 µM [inhibitor, single point]"
COc1cc(OC)cc(-n2nc(C(=O)NCCCN3CCOCC3)c3ccccc3c2=O)c1,,"inconclusive: 28.2 µM [inhibitor, single point]"
CC1CCCN1c1ncnc2c1CN(c1cccnc1)C(=O)CN2C (stereo not given),inactive: 41.8% [at 176 µM],
COc1ccc(-c2cc(-c3c(C)noc3C)c3cncn3c2)cc1OC,,"inconclusive: 3.55 µM [inhibitor, full curve, poor fit]"
Oc1c(C(c2ccc(Cl)cc2)N2CCC3(CC2)OCCO3)sc2nc(-c3ccco3)nn12 (stereo not given),,"inconclusive: 112 µM [inhibitor, partial curve, poor fit]"
O=C(O)CCC(NC(=O)C12CC3CC(CC(C3)C1)C2)C(=O)O (stereo not given),,"inconclusive: 126 µM [inhibitor, single point]"
Cc1nn(-c2ccccc2)c2c1C(c1cccnc1)N1C=C(S(=O)(=O)N3CCCCC3)C=CC1=N2 (stereo not given),,"inconclusive: 0.501 µM [inhibitor, full curve, poor fit]"
O=c1[nH][nH]c2cc(=O)n(-c3ccc(Cl)cc3)nc12,,"inconclusive: 44.7 µM [inhibitor, partial curve, poor fit]"
O=C(CCn1cccc1)NCCc1ccc(Cl)cc1,,"inconclusive: 39.8 µM [inhibitor, partial curve, poor fit]"
O=c1c2ccccc2oc2cc(-c3ccc4cc[nH]c4c3)ccc12,,"inconclusive: 112 µM [inhibitor, single point]"
Cc1ccc(C(=O)NC(C(=O)N2CCCCC2)C2CCN(C(=O)c3ccc(C)cc3)CC2)cc1 (stereo not given),,"inconclusive: 25.1 µM [inhibitor, partial curve]"
COc1ccc(CN2CCN(Cc3ccco3)CC2)cc1,,"inconclusive: 2.24 µM [inhibitor, full curve]"
OCC1(Cc2cccc(Cl)c2)CCCN(Cc2cnn(-c3ccccc3)c2)C1 (stereo not given),,"inconclusive: 50.1 µM [inhibitor, partial curve, poor fit]"

# Reformatted bar-delimited: entries from further up.
Compound | activity change, negative = inhibition | Potency
Cc1ccc(C2Cn3nnc(-c4nc(C5CCCCC5)no4)c3CO2)c(C)c1 (stereo not given) | inactive: 56.6% | 
O=S(=O)(NCc1ccccn1)c1cc(OCC(F)(F)F)ccc1OCC(F)(F)F |  | inconclusive: 39.8 µM [inhibitor, single point]

# Remaining list, next part

Compound,"activity change, negative = inhibition",Potency
COc1cc(/C=N/N(C)c2ccccc2)ccc1O,,"inconclusive: 44.7 µM [inhibitor, partial curve, poor fit]"
Fc1ccc(-c2csc(Nc3cccc4ccccc34)n2)cc1,,"inconclusive: 5.62 µM [inhibitor, full curve]"
CN(C)NC(=S)Nc1ccc([N+](=O)[O-])cc1,inactive: -6.88%,
COc1ccc(NC(=O)C(C)C)cc1Cl,,"inconclusive: 100 µM [inhibitor, single point]"
CCOC(=O)C1CCCN(CC(=O)/C=C2/N(C)c3ccccc3C2(C)C)C1 (stereo not given),,"inconclusive: 31.6 µM [inhibitor, partial curve]"
CCOc1ccc2nc(SCc3ccccc3C#N)sc2c1,inactive: 9.35%,
c1ccc(-c2nc(NCC3CCCO3)c3oc4ccccc4c3n2)cc1 (stereo not given),,"inconclusive: 20 µM [inhibitor, full curve, poor fit]"
Fc1ccc(NC(=S)NNc2ncc(C(F)(F)F)cc2Cl)c(F)c1,,"inconclusive: 35.5 µM [inhibitor, partial curve, poor fit]"
COc1cc(CN2CCN(c3cccc(C)c3C)CC2)cc([N+](=O)[O-])c1O,,"inconclusive: 1.12 µM [inhibitor, full curve, poor fit]"
CCCc1cc(=O)n2c(C(=O)NCc3ccccc3)c(C(=O)Nc3cccc(C)c3C)sc2n1,,"inconclusive: 89.1 µM [inhibitor, partial curve, poor fit]"
Cc1n[nH]c(=O)c2c(NC(=O)CSc3nnc(C4CC4)n3C)oc(C)c12,,"inconclusive: 100 µM [inhibitor, partial curve, poor fit]"
CC(C)Sc1ccccc1C(=O)NCCC1=CCCCC1,,"inconclusive: 3.98 µM [inhibitor, full curve, poor fit]"
CC1CC(C)CN(S(=O)(=O)CC23CCC(CC2=O)C3(C)C)C1 (stereo not given),,"inconclusive: 141 µM [inhibitor, partial curve, poor fit]"
COc1ccccc1NCC(O)COc1ccc(C(C)(C)C)cc1 (stereo not given),,"inconclusive: 0.251 µM [inhibitor, full curve, poor fit]"
CC(C)CC1C(=O)N(Cc2cn(CCC3OCCCO3)nn2)CCS(=O)(=O)N1Cc1ccc(-c2cccc(CO)c2)cc1 (stereo not given),,"inconclusive: 126 µM [inhibitor, single point]"
CN1OC[C@@H]2CN[C@H](c3cccc(-c4cc(Cl)cc(Cl)c4)c3)C[C@@H]21,,"inconclusive: 50.1 µM [inhibitor, partial curve, poor fit]"
c1ccc2c(NC3C4CC5CC(C4)CC3C5)nc(N3CCCC3)nc2c1 (stereo not given),,"inconclusive: 44.7 µM [inhibitor, partial curve, poor fit]"
CCc1nc2c(c(-c3ccc(OC)cc3)n1)CN(C(=O)c1ccc3c(c1)OCO3)CC2,,"inconclusive: 12.6 µM [inhibitor, full curve, poor fit]"
Cc1ccc(C(=O)C(CC(=O)c2ccccc2)S(=O)(=O)c2ccc(C)cc2)cc1 (stereo not given),,"inconclusive: 8.91 µM [inhibitor, partial curve, poor fit]"
COc1cccc(F)c1-c1ccc2c(n1)c(=O)ncn2Cc1ccccc1,,"inconclusive: 28.2 µM [inhibitor, full curve]"

# From PubChem BioAssay AID1671190 (National Center for Advancing Translational Sciences (NCATS), 2021)
